Data from article PMC10693086.
Results are given in words; binding and its absence hold for the method and conditions named. In cells and extracts the contact can be indirect. Some results given as binding are weak or reduced against the parent protein; the word gives no strength.

Protein sequences, listed by entry. Tags and fused reporters are not part of them.
UniProt P47811: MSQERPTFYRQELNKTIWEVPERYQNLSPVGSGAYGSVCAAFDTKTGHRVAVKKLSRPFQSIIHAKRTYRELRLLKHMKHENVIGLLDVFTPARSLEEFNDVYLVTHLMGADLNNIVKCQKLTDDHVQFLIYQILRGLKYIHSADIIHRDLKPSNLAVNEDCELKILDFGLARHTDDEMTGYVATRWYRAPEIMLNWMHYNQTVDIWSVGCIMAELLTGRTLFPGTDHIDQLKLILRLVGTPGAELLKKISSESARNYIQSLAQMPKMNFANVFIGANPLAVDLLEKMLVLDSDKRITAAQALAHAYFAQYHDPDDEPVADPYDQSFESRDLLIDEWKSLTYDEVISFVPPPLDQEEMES
UniProt Q16539: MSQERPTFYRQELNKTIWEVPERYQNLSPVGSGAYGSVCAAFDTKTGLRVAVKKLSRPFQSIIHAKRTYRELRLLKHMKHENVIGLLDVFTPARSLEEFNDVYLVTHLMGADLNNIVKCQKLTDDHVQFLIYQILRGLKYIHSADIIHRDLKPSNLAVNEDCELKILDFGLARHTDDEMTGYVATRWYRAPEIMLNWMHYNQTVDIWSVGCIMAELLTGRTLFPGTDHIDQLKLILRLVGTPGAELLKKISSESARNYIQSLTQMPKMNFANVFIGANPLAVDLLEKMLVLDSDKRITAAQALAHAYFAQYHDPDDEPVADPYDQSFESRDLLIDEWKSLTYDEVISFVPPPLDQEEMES
UniProt Q02248: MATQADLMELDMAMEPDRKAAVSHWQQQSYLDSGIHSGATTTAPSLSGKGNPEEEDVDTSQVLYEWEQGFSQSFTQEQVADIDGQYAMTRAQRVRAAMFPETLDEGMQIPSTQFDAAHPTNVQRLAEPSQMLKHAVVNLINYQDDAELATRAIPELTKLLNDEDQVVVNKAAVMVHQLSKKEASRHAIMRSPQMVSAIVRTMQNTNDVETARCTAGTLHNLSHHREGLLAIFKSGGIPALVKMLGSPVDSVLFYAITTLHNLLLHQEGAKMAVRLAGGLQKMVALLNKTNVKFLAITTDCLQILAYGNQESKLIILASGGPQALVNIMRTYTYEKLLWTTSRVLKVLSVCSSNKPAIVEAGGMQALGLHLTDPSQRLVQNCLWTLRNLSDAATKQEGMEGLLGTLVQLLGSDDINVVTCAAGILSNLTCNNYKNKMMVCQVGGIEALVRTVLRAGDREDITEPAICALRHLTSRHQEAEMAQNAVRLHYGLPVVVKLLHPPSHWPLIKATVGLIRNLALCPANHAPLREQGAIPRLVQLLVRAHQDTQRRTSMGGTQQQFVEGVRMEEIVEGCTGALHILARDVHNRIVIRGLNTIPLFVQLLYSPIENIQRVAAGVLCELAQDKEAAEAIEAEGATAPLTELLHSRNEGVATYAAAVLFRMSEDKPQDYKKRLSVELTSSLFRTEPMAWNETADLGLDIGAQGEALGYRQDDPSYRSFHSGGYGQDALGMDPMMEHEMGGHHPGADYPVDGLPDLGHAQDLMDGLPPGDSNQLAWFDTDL
UniProt Q61315: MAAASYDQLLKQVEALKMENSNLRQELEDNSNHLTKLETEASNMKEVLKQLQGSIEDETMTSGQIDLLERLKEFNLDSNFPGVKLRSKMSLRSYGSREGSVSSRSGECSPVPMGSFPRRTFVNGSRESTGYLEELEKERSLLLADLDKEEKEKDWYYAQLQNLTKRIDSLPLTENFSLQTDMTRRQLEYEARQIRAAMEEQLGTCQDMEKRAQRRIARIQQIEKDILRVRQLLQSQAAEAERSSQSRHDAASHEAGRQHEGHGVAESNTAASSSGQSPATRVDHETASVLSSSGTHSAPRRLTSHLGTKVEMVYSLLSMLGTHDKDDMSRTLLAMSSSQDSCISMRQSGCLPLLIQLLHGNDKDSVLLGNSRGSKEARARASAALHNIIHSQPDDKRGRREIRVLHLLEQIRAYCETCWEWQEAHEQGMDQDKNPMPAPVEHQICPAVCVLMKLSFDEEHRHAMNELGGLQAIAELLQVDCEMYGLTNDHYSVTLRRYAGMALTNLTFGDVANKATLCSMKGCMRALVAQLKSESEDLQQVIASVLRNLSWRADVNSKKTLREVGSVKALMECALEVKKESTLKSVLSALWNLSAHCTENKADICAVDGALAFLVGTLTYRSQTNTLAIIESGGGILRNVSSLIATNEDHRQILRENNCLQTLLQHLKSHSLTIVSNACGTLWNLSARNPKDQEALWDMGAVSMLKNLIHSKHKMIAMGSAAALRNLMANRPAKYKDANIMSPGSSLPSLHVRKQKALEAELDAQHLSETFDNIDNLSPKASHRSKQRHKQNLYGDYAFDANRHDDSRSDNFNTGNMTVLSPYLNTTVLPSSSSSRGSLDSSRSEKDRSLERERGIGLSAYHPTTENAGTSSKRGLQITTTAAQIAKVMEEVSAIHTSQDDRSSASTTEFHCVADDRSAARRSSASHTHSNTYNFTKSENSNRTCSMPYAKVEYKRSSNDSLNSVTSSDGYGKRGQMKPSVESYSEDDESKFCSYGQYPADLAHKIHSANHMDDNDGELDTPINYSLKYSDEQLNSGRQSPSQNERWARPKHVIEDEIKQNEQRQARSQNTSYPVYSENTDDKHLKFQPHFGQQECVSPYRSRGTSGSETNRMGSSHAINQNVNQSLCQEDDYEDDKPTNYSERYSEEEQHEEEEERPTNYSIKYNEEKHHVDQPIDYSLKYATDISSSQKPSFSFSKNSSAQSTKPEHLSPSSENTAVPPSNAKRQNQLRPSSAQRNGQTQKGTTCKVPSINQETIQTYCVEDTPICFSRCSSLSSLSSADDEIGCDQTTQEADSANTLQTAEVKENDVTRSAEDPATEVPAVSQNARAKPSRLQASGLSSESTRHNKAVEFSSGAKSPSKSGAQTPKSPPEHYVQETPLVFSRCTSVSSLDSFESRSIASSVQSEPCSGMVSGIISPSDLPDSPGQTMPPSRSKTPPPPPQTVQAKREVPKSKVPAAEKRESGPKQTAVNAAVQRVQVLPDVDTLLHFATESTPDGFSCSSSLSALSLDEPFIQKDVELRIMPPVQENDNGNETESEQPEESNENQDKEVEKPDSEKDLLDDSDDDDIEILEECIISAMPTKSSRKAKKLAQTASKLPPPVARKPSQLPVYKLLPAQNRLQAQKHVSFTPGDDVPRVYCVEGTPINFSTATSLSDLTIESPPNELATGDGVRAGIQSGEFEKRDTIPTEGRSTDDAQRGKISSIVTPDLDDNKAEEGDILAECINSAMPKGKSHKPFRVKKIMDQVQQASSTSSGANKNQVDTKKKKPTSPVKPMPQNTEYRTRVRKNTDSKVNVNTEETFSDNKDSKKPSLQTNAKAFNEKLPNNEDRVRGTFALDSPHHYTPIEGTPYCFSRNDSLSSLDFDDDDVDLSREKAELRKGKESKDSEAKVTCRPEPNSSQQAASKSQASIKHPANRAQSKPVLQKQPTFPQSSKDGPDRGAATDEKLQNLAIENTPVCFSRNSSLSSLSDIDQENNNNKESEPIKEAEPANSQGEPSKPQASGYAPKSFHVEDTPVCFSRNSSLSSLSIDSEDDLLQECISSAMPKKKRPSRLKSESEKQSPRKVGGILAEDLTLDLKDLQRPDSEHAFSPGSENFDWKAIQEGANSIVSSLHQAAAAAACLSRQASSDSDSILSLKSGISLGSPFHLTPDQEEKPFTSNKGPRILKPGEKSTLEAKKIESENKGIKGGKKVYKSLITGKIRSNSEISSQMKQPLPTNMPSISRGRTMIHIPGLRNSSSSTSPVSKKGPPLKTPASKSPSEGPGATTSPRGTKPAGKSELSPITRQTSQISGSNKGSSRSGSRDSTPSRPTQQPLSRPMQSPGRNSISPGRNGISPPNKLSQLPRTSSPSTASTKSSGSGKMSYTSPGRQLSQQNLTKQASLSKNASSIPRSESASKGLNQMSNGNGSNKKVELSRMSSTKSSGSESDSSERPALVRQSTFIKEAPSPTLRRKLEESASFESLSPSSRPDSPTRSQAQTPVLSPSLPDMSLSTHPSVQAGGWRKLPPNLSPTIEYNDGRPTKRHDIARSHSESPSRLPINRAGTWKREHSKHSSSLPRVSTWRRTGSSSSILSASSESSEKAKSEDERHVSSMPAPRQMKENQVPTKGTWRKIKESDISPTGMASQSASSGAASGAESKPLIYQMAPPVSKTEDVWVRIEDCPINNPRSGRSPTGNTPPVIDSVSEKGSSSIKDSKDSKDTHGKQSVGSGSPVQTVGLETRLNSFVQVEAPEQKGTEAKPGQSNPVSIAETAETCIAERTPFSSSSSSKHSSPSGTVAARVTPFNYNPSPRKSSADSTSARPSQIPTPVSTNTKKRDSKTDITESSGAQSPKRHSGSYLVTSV
UniProt O15169: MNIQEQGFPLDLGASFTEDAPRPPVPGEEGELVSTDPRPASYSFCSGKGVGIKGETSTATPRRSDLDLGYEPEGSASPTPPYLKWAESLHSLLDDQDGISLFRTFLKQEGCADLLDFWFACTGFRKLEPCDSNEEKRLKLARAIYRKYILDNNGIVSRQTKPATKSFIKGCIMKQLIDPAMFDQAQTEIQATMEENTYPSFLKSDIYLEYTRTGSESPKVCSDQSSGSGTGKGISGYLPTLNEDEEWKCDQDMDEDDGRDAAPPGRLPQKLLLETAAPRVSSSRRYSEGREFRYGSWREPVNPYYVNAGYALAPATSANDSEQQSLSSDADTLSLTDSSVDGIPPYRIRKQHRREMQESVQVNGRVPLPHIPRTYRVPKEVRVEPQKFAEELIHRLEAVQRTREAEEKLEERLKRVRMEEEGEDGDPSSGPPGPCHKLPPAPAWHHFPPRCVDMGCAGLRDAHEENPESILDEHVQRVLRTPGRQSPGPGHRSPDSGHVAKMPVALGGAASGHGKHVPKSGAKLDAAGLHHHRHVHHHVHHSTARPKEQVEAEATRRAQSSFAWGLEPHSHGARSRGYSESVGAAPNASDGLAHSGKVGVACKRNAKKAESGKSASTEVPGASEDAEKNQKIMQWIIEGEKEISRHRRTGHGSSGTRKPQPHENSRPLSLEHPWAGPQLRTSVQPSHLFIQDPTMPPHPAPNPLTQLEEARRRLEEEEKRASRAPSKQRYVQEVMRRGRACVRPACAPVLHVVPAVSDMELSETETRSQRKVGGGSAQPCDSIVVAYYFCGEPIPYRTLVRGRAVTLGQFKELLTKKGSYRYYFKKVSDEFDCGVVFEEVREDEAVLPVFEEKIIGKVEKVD
UniProt O35625: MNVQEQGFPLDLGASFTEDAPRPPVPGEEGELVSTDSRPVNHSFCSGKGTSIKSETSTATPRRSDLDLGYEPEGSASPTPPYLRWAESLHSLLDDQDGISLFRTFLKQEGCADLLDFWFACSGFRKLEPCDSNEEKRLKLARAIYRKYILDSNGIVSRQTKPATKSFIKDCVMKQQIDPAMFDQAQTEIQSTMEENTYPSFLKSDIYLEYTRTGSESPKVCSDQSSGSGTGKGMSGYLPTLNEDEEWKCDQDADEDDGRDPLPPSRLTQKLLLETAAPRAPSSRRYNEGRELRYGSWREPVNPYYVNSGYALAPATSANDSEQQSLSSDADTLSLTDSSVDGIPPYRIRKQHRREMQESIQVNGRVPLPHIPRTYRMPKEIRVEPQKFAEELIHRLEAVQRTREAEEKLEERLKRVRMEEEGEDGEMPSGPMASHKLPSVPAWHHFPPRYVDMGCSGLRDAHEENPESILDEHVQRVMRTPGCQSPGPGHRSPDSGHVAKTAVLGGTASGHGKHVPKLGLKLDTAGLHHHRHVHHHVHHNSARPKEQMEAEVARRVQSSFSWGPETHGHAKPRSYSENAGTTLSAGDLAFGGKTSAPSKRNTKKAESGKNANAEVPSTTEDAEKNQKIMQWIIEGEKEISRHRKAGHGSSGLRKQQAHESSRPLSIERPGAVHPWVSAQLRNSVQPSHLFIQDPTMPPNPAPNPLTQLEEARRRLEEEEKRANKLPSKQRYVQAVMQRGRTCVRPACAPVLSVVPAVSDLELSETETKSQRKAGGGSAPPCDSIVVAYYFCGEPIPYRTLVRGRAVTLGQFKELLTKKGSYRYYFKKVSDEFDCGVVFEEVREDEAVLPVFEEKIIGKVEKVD

Experiments:
[1] = target: p38α (endogenous, mouse colon tissue) (mouse (endogenous in C57BL/6 colon tissue)) (UniProt P47811); experiment: co-IP; lysate of normal colon tissue from C57BL/6 mice; immunoprecipitation with anti-p38α on Dynabeads Protein A or G, immunoblot; lysis buffer 50 mM Tris-HCl pH 7.4, 5 mM EDTA, 250 mM NaCl, 1% Triton X-100; IgG as negative control
[2] = target: p38α (endogenous, HCT-116 cells) (human (endogenous in HCT-116)) (UniProt Q16539); experiment: co-IP; whole-cell lysate of HCT-116 cells, endogenous proteins; immunoprecipitation with anti-p38α on Dynabeads Protein A or G, immunoblot; lysis buffer 50 mM Tris-HCl pH 7.4, 5 mM EDTA, 250 mM NaCl, 1% Triton X-100; IgG as negative control

binding [1] | binding [2] | Substance
binds |  | β-catenin (endogenous, mouse colon tissue) (from UniProt Q02248 1-781)
binds |  | APC (endogenous, mouse colon tissue) (from UniProt Q61315 1-2845)
 | binds | Axin-1 (endogenous, HCT-116 cells) (from UniProt O15169 1-862)
binds |  | Axin-1 (endogenous, mouse colon tissue) (from UniProt O35625 1-863)
